PubChem BioAssay AID1259405 | NCATS | 2018
Assay: 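Knock-downs that lift recombinant protein yield in hamster ovary cells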 (primary screen). Cell system: Chinese hamster CHO-K1 ovary cells with stable secreted eGFP expression. Reagent: single siRNA against mouse genes, 0.8 pmol siRNA per well (2 µl of 400 nM stock). Time to read-out: 3 days. Measured: 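Percent of the per-plate non-targeting control median for intracellular GFP per well by laser scanning cytometry and for cell viability by ATP luminescence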. Direction: GFP, % of control: higher = more GFP per well, higher productivity; viability (ATP), % of control: higher = more viable cells (more ATP). Call rule: 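a knock-down is called active if GFP reaches 120% or more of non-targeting control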.
In all, the deposit lists about 50,000 reagents; below is a part drawn at random. About 4,000 of all reagents (8%) were called active. 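Mouse siRNA library applied to hamster cells; one well for each siRNA.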 The numbers tell different reagents against one gene apart. Reagent sequences are not shown.

Diaph2 #1
- GFP, % of control: 45.7
- viability (ATP), % of control: 51.3
- call: inactive

Diaph2 #2
- GFP, % of control: 69.4
- viability (ATP), % of control: 65.7
- call: inactive

Diaph2 #3
- GFP, % of control: 63.8
- viability (ATP), % of control: 96.4
- call: inactive

Triap1 #1
- GFP, % of control: 99.8
- viability (ATP), % of control: 97.7
- call: inactive

Triap1 #2
- GFP, % of control: 60
- viability (ATP), % of control: 68.6
- call: inactive

Triap1 #3
- GFP, % of control: 113
- viability (ATP), % of control: 71.9
- call: inactive

Gstk1 #1
- GFP, % of control: 56.1
- viability (ATP), % of control: 53.6
- call: inactive

Gstk1 #2
- GFP, % of control: 45
- viability (ATP), % of control: 35.9
- call: inactive

Fut2b #1
- GFP, % of control: 60.9
- viability (ATP), % of control: 42.9
- call: inactive

Fut2b #2
- GFP, % of control: 65.4
- viability (ATP), % of control: 55.4
- call: inactive

Fut2b #3
- GFP, % of control: 101
- viability (ATP), % of control: 56
- call: inactive

Ttbk1 #1
- GFP, % of control: 104
- viability (ATP), % of control: 93.4
- call: inactive

Ttbk1 #2
- GFP, % of control: 82.2
- viability (ATP), % of control: 54.3
- call: inactive

Ttbk1 #3
- GFP, % of control: 97.2
- viability (ATP), % of control: 97.6
- call: inactive

Hsd3b4 #1
- GFP, % of control: 63.5
- viability (ATP), % of control: 45
- call: inactive

Hsd3b4 #2
- GFP, % of control: 96.3
- viability (ATP), % of control: 74.4
- call: inactive

Hsd3b4 #3
- GFP, % of control: 67.3
- viability (ATP), % of control: 78
- call: inactive

4932416K20Rik #1
- GFP, % of control: 105
- viability (ATP), % of control: 94.5
- call: inactive

4932416K20Rik #2
- GFP, % of control: 97.6
- viability (ATP), % of control: 69.9
- call: inactive

4932416K20Rik #3
- GFP, % of control: 77.9
- viability (ATP), % of control: 83.4
- call: inactive

H1f10 #1
- GFP, % of control: 95.7
- viability (ATP), % of control: 97
- call: inactive

H1f10 #2
- GFP, % of control: 99
- viability (ATP), % of control: 105
- call: inactive

H1f10 #3
- GFP, % of control: 104
- viability (ATP), % of control: 76.4
- call: inactive

H2-K1 #1
- GFP, % of control: 50.1
- viability (ATP), % of control: 62.1
- call: inactive

H2-K1 #2
- GFP, % of control: 86
- viability (ATP), % of control: 81.2
- call: inactive

H2-K1 #3
- GFP, % of control: 54.5
- viability (ATP), % of control: 71.6
- call: inactive

H2-K1 #4
- GFP, % of control: 118
- viability (ATP), % of control: 100
- call: inactive

H2-K1 #5
- GFP, % of control: 62.6
- viability (ATP), % of control: 48.2
- call: inactive

Or5p55 #1
- GFP, % of control: 87.2
- viability (ATP), % of control: 83.8
- call: inactive

Or5p55 #2
- GFP, % of control: 74
- viability (ATP), % of control: 75.4
- call: inactive

Or5p55 #3
- GFP, % of control: 51.5
- viability (ATP), % of control: 53.6
- call: inactive

Stmn3 #1
- GFP, % of control: 106
- viability (ATP), % of control: 87.1
- call: inactive

Stmn3 #2
- GFP, % of control: 104
- viability (ATP), % of control: 125
- call: inactive

Stmn3 #3
- GFP, % of control: 76.8
- viability (ATP), % of control: 77.5
- call: inactive

Foxl2 #1
- GFP, % of control: 73.7
- viability (ATP), % of control: 124
- call: inactive

Foxl2 #2
- GFP, % of control: 68.2
- viability (ATP), % of control: 76.3
- call: inactive

Pcsk2 #1
- GFP, % of control: 98.6
- viability (ATP), % of control: 93.9
- call: inactive

Pcsk2 #2
- GFP, % of control: 51.8
- viability (ATP), % of control: 64.5
- call: inactive

Pcsk2 #3
- GFP, % of control: 61.5
- viability (ATP), % of control: 65.1
- call: inactive

Haus4 #1
- GFP, % of control: 75.4
- viability (ATP), % of control: 86.7
- call: inactive

Haus4 #2
- GFP, % of control: 72.7
- viability (ATP), % of control: 78.6
- call: inactive

Haus4 #3
- GFP, % of control: 77.8
- viability (ATP), % of control: 88.6
- call: inactive

In a second layout: entries from further up
Gene,reagent,"GFP, % of control","viability (ATP), % of control",call
Or5p55,1,87.2,83.8,inactive
Or5p55,2,74,75.4,inactive
Or5p55,3,51.5,53.6,inactive
